The list shows a part of the results.
What was measured:
Assay in all cases: log2 fold change, soluble protein after heating vs DMSO (PISA); higher = thermal stabilisation; K562 lysate, 10 uM; active = over 0.2 and 3.5 SD of the protein, either way, in both replicates (recomputed)
[1] = compound: CCCS(=O)(=O)Nc1ccc(F)c(C(=O)c2c[nH]c3ncc(-c4ccc(Cl)cc4)cc23)c1F [vemurafenib]
Procedure, shortened: (§1)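 Soluble protein was defined as the supernatant remaining after 21,000xg for 90 min, following pooling of heated aliquots and adjustment to 0.5% NP-40 at 4°C. Before that, crude K562 extract at 1 mg/mL protein in PBS pH 7.4 with 1 mM MgCl2 was treated with 10 μM compound for 30 min and heated for 3 min across 48°C-58°C. Quantification used TMTpro 16plex LC-MS/MS with channel sums equalised, and values are log-two fold changes in thermal stability relative to solvent controls from duplicates.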

Chains of the proteins cited; added tags and fusions are not shown. Lines headed by an entry give the natural chain unless they say otherwise; changes in a name come on top.
UniProt Q15003, whole entry, looked up: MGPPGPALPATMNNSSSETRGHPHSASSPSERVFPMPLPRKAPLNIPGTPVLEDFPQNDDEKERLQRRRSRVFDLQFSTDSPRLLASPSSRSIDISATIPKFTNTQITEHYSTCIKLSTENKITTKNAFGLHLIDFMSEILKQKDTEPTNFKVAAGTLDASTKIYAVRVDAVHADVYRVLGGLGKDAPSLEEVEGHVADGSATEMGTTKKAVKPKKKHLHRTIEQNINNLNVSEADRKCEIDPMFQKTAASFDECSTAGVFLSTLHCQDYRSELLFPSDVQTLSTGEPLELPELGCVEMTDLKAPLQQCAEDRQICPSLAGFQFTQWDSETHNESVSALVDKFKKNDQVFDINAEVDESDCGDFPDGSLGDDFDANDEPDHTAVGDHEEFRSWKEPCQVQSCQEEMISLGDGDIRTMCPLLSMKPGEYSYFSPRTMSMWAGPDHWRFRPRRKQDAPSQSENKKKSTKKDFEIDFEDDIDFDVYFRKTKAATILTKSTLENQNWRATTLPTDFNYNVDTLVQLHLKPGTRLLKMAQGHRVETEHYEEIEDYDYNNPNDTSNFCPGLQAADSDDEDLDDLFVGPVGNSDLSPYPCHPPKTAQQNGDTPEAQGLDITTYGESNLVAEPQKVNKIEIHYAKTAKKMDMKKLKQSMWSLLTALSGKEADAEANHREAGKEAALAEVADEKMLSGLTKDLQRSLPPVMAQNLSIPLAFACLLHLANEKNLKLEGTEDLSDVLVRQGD
UniProt O75592: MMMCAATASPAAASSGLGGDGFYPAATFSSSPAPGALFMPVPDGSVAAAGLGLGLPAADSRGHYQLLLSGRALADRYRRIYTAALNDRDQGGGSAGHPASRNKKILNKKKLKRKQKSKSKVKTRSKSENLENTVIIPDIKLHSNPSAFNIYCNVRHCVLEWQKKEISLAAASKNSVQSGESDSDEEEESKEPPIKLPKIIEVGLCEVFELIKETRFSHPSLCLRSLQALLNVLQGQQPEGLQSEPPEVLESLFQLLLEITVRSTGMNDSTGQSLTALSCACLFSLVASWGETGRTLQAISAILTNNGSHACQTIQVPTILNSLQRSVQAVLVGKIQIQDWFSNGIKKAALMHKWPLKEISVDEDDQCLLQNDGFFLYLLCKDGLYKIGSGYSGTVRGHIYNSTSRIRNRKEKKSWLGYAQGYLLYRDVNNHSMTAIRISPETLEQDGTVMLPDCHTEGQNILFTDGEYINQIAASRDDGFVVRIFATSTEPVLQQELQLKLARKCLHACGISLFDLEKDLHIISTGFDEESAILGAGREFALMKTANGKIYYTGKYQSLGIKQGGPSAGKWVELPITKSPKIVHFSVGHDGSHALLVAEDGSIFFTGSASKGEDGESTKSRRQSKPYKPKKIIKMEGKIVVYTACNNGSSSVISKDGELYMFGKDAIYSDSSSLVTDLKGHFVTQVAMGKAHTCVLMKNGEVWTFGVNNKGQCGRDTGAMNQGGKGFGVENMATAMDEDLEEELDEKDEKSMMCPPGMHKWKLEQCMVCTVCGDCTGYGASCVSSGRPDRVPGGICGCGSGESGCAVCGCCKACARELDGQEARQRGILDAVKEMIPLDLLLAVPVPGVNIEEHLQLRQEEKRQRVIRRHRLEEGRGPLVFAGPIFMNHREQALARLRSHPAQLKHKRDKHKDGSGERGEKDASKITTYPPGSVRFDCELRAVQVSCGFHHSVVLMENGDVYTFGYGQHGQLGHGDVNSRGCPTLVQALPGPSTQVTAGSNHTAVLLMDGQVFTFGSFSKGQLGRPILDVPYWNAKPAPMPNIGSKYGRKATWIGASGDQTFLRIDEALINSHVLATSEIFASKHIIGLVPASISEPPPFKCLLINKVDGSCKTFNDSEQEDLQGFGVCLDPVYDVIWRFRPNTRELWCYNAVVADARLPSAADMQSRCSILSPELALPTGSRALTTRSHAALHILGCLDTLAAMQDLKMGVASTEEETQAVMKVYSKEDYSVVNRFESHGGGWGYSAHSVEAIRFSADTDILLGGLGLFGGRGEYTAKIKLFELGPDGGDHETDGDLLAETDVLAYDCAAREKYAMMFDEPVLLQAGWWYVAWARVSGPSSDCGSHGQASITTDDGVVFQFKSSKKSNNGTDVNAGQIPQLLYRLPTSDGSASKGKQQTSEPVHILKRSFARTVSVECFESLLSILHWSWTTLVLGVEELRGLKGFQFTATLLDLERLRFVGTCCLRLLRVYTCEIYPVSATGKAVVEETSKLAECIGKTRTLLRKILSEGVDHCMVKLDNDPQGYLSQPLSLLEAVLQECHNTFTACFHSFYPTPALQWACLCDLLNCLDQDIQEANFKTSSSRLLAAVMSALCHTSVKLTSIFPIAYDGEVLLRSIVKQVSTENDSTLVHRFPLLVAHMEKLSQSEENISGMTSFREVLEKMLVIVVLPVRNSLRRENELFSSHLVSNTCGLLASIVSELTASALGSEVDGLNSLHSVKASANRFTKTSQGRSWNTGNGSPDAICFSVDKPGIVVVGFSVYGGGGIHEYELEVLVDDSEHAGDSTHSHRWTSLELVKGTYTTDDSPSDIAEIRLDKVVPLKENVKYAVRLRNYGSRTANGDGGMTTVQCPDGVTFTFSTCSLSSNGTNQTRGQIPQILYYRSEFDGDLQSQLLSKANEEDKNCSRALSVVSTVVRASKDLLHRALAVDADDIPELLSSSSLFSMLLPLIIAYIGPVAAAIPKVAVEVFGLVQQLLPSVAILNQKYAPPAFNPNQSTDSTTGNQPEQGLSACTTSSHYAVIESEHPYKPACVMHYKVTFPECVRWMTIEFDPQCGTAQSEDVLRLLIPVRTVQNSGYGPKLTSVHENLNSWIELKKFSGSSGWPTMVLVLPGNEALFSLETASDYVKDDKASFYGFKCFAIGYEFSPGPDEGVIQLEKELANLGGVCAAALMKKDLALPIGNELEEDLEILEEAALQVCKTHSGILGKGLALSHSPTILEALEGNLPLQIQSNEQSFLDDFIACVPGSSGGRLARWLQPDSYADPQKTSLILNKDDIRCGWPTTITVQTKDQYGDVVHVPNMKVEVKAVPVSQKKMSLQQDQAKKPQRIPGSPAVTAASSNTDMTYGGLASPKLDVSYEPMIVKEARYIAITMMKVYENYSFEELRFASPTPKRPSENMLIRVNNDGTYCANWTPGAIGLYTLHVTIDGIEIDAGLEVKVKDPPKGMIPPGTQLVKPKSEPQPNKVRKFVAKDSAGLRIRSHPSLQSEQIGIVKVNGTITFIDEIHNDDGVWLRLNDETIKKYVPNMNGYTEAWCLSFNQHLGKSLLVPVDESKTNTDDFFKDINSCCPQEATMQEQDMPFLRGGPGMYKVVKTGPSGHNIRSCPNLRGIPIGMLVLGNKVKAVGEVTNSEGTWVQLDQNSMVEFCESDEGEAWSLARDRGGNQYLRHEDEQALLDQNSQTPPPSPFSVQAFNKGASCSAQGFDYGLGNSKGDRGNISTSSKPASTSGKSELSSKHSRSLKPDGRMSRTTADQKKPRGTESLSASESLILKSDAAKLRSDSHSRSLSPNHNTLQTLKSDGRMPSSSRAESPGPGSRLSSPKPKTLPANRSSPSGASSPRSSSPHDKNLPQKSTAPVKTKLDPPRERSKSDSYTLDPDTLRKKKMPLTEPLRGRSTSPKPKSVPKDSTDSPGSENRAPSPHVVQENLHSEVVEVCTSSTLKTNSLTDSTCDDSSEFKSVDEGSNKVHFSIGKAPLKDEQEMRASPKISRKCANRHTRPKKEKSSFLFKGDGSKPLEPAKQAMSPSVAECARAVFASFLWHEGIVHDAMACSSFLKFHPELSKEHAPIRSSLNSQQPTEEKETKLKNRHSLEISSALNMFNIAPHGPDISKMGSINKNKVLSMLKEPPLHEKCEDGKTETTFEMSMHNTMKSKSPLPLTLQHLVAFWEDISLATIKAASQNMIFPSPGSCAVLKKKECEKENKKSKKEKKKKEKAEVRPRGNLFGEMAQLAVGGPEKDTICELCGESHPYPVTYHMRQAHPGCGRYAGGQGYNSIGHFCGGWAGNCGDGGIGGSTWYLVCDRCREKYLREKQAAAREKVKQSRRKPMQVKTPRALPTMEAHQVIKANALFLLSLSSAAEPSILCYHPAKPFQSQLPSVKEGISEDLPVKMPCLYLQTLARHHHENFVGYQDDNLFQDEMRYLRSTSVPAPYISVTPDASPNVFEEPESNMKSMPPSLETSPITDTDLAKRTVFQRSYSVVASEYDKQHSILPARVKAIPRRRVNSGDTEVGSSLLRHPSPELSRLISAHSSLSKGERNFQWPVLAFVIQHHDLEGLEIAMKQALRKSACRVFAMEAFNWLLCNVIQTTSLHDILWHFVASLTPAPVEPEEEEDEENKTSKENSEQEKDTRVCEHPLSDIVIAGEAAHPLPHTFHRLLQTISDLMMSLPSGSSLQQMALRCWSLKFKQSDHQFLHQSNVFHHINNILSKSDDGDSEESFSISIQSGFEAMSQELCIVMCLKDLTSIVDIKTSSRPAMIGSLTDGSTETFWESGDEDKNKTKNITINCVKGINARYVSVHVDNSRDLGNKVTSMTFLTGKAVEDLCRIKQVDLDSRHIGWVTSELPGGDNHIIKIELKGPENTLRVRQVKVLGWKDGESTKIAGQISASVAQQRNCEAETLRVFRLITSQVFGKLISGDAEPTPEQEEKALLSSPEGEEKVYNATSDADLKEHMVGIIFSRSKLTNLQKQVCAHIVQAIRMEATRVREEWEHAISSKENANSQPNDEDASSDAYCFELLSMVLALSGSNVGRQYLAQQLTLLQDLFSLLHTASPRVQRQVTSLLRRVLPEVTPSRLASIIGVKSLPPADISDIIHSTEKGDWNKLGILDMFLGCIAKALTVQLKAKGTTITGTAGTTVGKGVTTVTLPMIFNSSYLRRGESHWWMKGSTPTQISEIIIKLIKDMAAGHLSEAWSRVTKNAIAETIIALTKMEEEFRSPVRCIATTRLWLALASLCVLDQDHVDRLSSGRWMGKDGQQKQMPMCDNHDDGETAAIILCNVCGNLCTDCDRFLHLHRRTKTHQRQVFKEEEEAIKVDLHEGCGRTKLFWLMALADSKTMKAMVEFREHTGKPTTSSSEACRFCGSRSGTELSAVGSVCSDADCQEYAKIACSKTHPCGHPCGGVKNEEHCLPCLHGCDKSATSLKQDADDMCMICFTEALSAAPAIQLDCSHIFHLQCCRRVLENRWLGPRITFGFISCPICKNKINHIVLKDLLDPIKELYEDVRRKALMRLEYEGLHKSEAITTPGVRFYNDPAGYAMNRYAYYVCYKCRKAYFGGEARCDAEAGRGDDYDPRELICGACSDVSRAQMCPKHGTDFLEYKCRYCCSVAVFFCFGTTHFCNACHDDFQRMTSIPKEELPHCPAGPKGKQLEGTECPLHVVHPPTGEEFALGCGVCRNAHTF
UniProt Q14CX7, whole entry, looked up: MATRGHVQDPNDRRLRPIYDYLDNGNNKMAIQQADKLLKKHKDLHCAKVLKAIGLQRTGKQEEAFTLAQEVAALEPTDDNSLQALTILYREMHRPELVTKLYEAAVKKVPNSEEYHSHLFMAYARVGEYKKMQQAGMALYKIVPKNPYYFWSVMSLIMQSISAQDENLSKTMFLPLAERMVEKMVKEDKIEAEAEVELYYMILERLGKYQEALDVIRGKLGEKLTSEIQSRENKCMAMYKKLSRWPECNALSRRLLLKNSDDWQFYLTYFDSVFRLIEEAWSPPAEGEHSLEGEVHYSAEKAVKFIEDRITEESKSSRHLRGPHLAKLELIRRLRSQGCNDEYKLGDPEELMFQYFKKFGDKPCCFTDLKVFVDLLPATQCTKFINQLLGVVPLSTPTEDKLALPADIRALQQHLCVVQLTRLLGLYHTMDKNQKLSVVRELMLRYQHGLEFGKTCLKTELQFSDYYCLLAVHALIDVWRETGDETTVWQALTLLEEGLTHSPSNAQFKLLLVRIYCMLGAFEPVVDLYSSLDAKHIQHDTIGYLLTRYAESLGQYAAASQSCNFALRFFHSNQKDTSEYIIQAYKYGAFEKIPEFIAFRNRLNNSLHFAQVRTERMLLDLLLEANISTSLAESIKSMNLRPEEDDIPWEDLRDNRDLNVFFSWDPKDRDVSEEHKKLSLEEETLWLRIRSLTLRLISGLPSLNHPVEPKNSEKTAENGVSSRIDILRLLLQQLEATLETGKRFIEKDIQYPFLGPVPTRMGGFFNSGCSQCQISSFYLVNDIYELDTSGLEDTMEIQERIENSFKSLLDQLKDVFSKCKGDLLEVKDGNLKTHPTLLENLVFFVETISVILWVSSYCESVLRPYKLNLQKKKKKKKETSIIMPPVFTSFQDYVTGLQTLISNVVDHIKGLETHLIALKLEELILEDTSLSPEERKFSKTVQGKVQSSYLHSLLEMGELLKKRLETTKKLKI

[2] = compound: CCCS(=O)(=O)Nc1ccc(F)c(C(=O)c2c[nH]c3ncc(Cl)cc23)c1F
Procedure, shortened: as §1

[3] = compound: CCN(CCCOc1ccc2c(Nc3cc(CC(=O)Nc4cccc(F)c4)[nH]n3)ncnc2c1)CCOP(=O)(O)O [barasertib]
Procedure, shortened: as §1

[4] = compound: CC[C@@H]1C(=O)N(C)c2cnc(Nc3ccc(C(=O)NC4CCN(C)CC4)cc3OC)nc2N1C1CCCC1
Procedure, shortened: as §1

[5] = compound: CC[C@@H]1C(=O)N(C)c2cnc(Nc3ccc(C(=O)N[C@H]4CC[C@H](N5CCN(CC6CC6)CC5)CC4)cc3OC)nc2N1C(C)C [volasertib]
Procedure, shortened: as §1

[6] = compound: CCn1c(C(=O)N(C2CC2)C2CC2)cc2c3c(ncn3C)c(Nc3cc(C)n(C)n3)nc21
Procedure, shortened: as §1

[7] = compound: CCn1cc(-c2ccnc3[nH]c(-c4cccc(CN(C)C)c4)cc23)c(-c2ccc(NC(=O)N(C)C)cc2)n1
Procedure, shortened: as §1

[8] = compound: CN1CCC(CNc2ccc3ncc(-c4cccc(OC(F)(F)F)c4)n3n2)CC1
Procedure, shortened: as §1

[9] = compound: CN1CCN(CCOc2cc(OC3CCOCC3)c3c(Nc4c(Cl)ccc5c4OCO5)ncnc3c2)CC1 [saracatinib]
Procedure, shortened: as §1

[10] = compound: CN1CCN(c2nc(C3=C(c4c[nH]c5ccccc45)C(=O)NC3=O)c3ccccc3n2)CC1 [sotrastaurin]
Procedure, shortened: as §1

[11] = compound: CN1CC[C@H](c2c(O)cc(O)c3c(=O)cc(-c4ccccc4Cl)oc23)[C@H](O)C1 [alvocidib]
Procedure, shortened: as §1

[12] = compound: CN1CCc2c(c3ccccc3n2Cc2ccc(C(=O)NO)cc2)C1 [Tubastatin A]
Procedure, shortened: as §1

[13] = compound: CNC(=O)C1=CC=CC=C1NC2=NC(=NC=C2Cl)NC3=C(C=C(C=C3)N4CCOCC4)OC
Procedure, shortened: as §1

[14] = compound: CNC(=O)c1ccc(Nc2ncc(C(F)(F)F)c(NCc3nccnc3N(C)S(C)(=O)=O)n2)cc1 [defactinib]
Procedure, shortened: as §1

[15] = compound: CNc1nc(-c2ccc3c(N)n[nH]c3c2)cc(N2C[C@@H](C(=O)NC3CCCCC3)CC[C@H]2C)n1
Procedure, shortened: as §1

[16] = compound: COC(=O)N[C@@H](C)CNc1nccc(-c2cn(C(C)C)nc2-c2cc(Cl)cc(NS(C)(=O)=O)c2F)n1 [encorafenib]
Procedure, shortened: as §1

[17] = compound: COC(=O)[C@H](CCSC)NC(=O)C1=C(C=C(C=C1)NC[C@H](CS)N)C2=CC=CC=C2
Procedure, shortened: as §1

[18] = compound: COc1cc(Nc2ncc3c(n2)-c2ccc(Cl)cc2C(c2c(F)cccc2OC)=NC3)ccc1C(=O)O [alisertib]
Procedure, shortened: as §1

[19] = compound: COc1cc2nc(-c3cc(F)ccc3O)nc(N[C@@H]3CNC[C@H]3C(C)(C)O)c2cc1OC
Procedure, shortened: as §1

[20] = compound: COc1cc2ncnc(Nc3ccc(F)c(Cl)c3)c2cc1OCCCN1CCOCC1 [gefitinib]
Procedure, shortened: as §1

Measured: log2 fold change

NAV1 (UniProt Q8NEY1)
inactive: [1] -0.042 | [2] -0.005 | [3] 0.005 | [4] -0.027 | [5] 0.059 | [6] 0 | [7] -0.281 | [8] -0.184 | [9] -0.041 | [10] -0.011 | [11] -0.072 | [12] -0.052 | [13] -0.013 | [14] -0.103 | [15] 0.068 | [16] 0.086 | [17] 0.033 | [18] 0.04 | [19] 0.018 | [20] -0.002

NCOA6 (UniProt Q14686)
inactive: [1] -0.012 | [2] 0.02 | [3] 0.037 | [4] 0.082 | [5] 0.008 | [6] -0.009 | [7] -0.03 | [8] 0.02 | [9] -0.042 | [10] -0.025 | [11] -0.016 | [12] -0.02 | [13] 0.047 | [14] 0.068 | [15] 0.045 | [16] 0.04 | [17] 0.011 | [18] -0.032 | [19] -0.022 | [20] 0.018

NAMPT (UniProt P43490)
inactive: [1] -0.045 | [2] -0.015 | [3] -0.014 | [4] -0.036 | [5] 0.03 | [6] 0.004 | [7] 0.031 | [8] 0.116 | [9] -0.012 | [10] 0.044 | [11] 0.052 | [12] 0.053 | [13] 0.005 | [14] 0.001 | [15] -0.018 | [16] -0.039 | [17] -0.049 | [18] 0.011 | [19] 0.008 | [20] 0.062

NADSYN1 (UniProt Q6IA69)
inactive: [1] -0.006 | [2] 0 | [3] -0.001 | [4] 0.063 | [5] 0.021 | [6] 0.005 | [7] -0.023 | [8] 0.086 | [9] -0.032 | [10] 0.043 | [11] 0.035 | [12] 0.009 | [13] -0.016 | [14] 0.017 | [15] 0.035 | [16] -0.006 | [17] 0.003 | [18] -0.035 | [19] 0.027 | [20] 0.055

NCLN (UniProt Q969V3)
inactive: [1] 0.001 | [2] 0.01 | [3] 0.022 | [4] 0 | [5] -0.009 | [6] -0.012 | [7] -0.052 | [8] -0.009 | [9] 0.009 | [10] 0.017 | [11] 0.018 | [12] -0.003 | [13] -0.012 | [14] 0.011 | [15] -0.004 | [16] 0.029 | [17] -0.023 | [18] 0.028 | [19] -0.079 | [20] -0.003

Quoted from above (4 entries):
NCOA6 (UniProt Q14686)
inactive: [1] -0.012 | [2] 0.02 | [3] 0.037 | [4] 0.082 | [5] 0.008 | [6] -0.009 | [7] -0.03 | [8] 0.02 | [9] -0.042 | [10] -0.025 | [11] -0.016 | [12] -0.02 | [13] 0.047 | [14] 0.068 | [15] 0.045 | [16] 0.04 | [17] 0.011 | [18] -0.032 | [19] -0.022 | [20] 0.018

NAMPT (UniProt P43490)
inactive: [1] -0.045 | [2] -0.015 | [3] -0.014 | [4] -0.036 | [5] 0.03 | [6] 0.004 | [7] 0.031 | [8] 0.116 | [9] -0.012 | [10] 0.044 | [11] 0.052 | [12] 0.053 | [13] 0.005 | [14] 0.001 | [15] -0.018 | [16] -0.039 | [17] -0.049 | [18] 0.011 | [19] 0.008 | [20] 0.062

NADSYN1 (UniProt Q6IA69)
inactive: [1] -0.006 | [2] 0 | [3] -0.001 | [4] 0.063 | [5] 0.021 | [6] 0.005 | [7] -0.023 | [8] 0.086 | [9] -0.032 | [10] 0.043 | [11] 0.035 | [12] 0.009 | [13] -0.016 | [14] 0.017 | [15] 0.035 | [16] -0.006 | [17] 0.003 | [18] -0.035 | [19] 0.027 | [20] 0.055

NCLN (UniProt Q969V3)
inactive: [1] 0.001 | [2] 0.01 | [3] 0.022 | [4] 0 | [5] -0.009 | [6] -0.012 | [7] -0.052 | [8] -0.009 | [9] 0.009 | [10] 0.017 | [11] 0.018 | [12] -0.003 | [13] -0.012 | [14] 0.011 | [15] -0.004 | [16] 0.029 | [17] -0.023 | [18] 0.028 | [19] -0.079 | [20] -0.003

Remaining list, next part.

NCAPH (UniProt Q15003)
inactive: [1] -0.015 | [2] 0.001 | [3] 0.012 | [4] -0.046 | [5] -0.044 | [6] 0.027 | [7] -0.057 | [8] -0.035 | [9] -0.016 | [10] 0.015 | [11] 0.007 | [12] -0.089 | [13] 0.008 | [14] 0.015 | [15] 0.023 | [16] 0.013 | [17] 0.063 | [18] 0.015 | [19] 0.018 | [20] 0.006

NAPB (UniProt Q9H115)
inactive: [1] 0.019 | [2] -0.022 | [3] 0.006 | [4] 0.029 | [5] 0.051 | [6] 0.033 | [7] 0.214 | [8] -0.121 | [9] -0.06 | [10] -0.052 | [11] 0.113 | [12] 0.014 | [13] 0.03 | [14] 0.166 | [15] 0.121 | [16] 0.012 | [17] -0.05 | [18] 0.024 | [19] -0.014 | [20] -0.118

NCSTN (UniProt Q92542)
inactive: [1] 0.025 | [2] -0.009 | [3] 0.026 | [4] 0.022 | [5] -0.012 | [6] 0 | [7] -0.229 | [8] 0.145 | [9] 0.027 | [10] 0.006 | [11] -0.115 | [12] 0.059 | [13] 0.009 | [14] -0.009 | [15] 0.098 | [16] 0.05 | [17] -0.043 | [18] 0.011 | [19] -0.02 | [20] -0.018

MYCBP2 (UniProt O75592)
inactive: [1] -0.026 | [2] 0.036 | [3] 0.037 | [4] 0.017 | [5] -0.019 | [6] -0.01 | [7] -0.117 | [8] 0.083 | [9] 0.033 | [10] -0.029 | [11] -0.046 | [12] -0.098 | [13] 0.024 | [14] 0.019 | [15] 0.003 | [16] 0.055 | [17] -0.015 | [18] 0.007 | [19] 0.032 | [20] -0.004

NCK1 (UniProt P16333)
inactive: [1] 0.049 | [2] 0.003 | [3] -0.008 | [4] 0.068 | [5] -0.011 | [6] -0.025 | [7] 0.067 | [8] -0.05 | [9] 0.015 | [10] 0.014 | [11] 0 | [12] -0.097 | [13] 0.023 | [14] -0.02 | [15] -0.008 | [16] 0.008 | [17] -0.068 | [18] -0.003 | [19] -0.007 | [20] 0.026

NAA25 (UniProt Q14CX7)
inactive: [1] -0.014 | [2] 0.009 | [3] -0.01 | [4] -0.019 | [5] -0.044 | [6] 0.018 | [7] 0.042 | [8] -0.037 | [9] 0.019 | [10] -0.016 | [11] 0.021 | [12] 0.02 | [13] -0.002 | [14] 0.034 | [15] -0.031 | [16] -0.003 | [17] 0.143 | [18] 0.007 | [19] -0.026 | [20] 0.008

MYO19 (UniProt Q96H55)
inactive: [1] -0.088 | [2] 0.044 | [3] -0.118 | [4] -0.101 | [5] -0.134 | [6] 0.029 | [7] 0.008 | [8] -0.154 | [9] 0.154 | [10] -0.077 | [11] 0.162 | [12] -0.048 | [13] 0.046 | [14] 0.115 | [15] 0.075 | [16] -0.034 | [17] 0.111 | [18] 0.015 | [19] -0.011 | [20] -0.077

N4BP1 (UniProt O75113)
inactive: [1] -0.008 | [2] 0.007 | [3] 0.006 | [4] -0.04 | [5] 0.001 | [6] 0 | [7] 0.018 | [8] -0.035 | [9] 0.004 | [10] -0.006 | [11] 0.011 | [12] -0.041 | [13] -0.002 | [14] 0.079 | [15] -0.045 | [16] 0.012 | [17] -0.052 | [18] -0.043 | [19] 0.076 | [20] 0.041

MYO1C (UniProt O00159)
inactive: [1] -0.016 | [2] 0.039 | [3] -0.012 | [4] -0.042 | [5] -0.046 | [6] 0.101 | [7] -0.025 | [8] -0.018 | [9] -0.019 | [10] 0.028 | [11] 0.029 | [12] -0.114 | [13] -0.057 | [14] 0.052 | [15] -0.045 | [16] 0.076 | [17] 0.049 | [18] 0.008 | [19] 0.01 | [20] -0.02

NAXD (UniProt Q8IW45)
inactive: [1] -0.029 | [2] 0.025 | [3] 0.046 | [4] 0.11 | [5] 0.04 | [6] -0.075 | [7] -0.04 | [8] 0.082 | [9] 0.027 | [10] 0.016 | [11] -0.047 | [12] 0.095 | [13] 0.017 | [14] 0.082 | [15] 0.018 | [16] 0.008 | [17] -0.058 | [18] -0.051 | [19] -0.045 | [20] -0.048

NCOA4 isoform 4 (UniProt Q13772)
inactive: [1] -0.01 | [2] 0.089 | [3] 0.054 | [4] -0.006 | [5] -0.032 | [6] -0.074 | [7] 0.127 | [8] -0.075 | [9] 0.012 | [10] 0.045 | [11] -0.059 | [12] -0.136 | [13] -0.04 | [14] 0.073 | [15] 0.034 | [16] 0.046 | [17] -0.009 | [18] 0.083 | [19] -0.067 | [20] 0.051

— the supplement of paper PMC10849652
